The whole screen tested about 330,000 compounds, of which about 7,700 (2.3%) were called active. Inconclusive results, whose numbers are uncertain, are shown with a selection of clear calls. Calls follow the shape of the dose curve; as a rule, active = well fitted inhibition curve with a large enough effect; inconclusive = small, poorly fitted or top-dose-only effect, or effect the other way; inactive = flat fitted curve, though single readings scatter. Potencies beside an inconclusive call are fits to weak or partial responses and may not hold up.
Assay: qHTS screen for small molecules that inhibit ELG1-dependent DNA repair in human embryonic kidney (HEK293T) cells expressing luciferase-tagged ELG1; also: nearly all actives have a fitted effect of over 55% in size
Settings: HEK293T ELG1-luciferase reporter, luminescence, 16 h, DNA damage induced by 5-fluorouridine; series mostly up to 46.1 µM
Procedure, shortened: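 Quantitative HTS, concentration-response format. 2,000 cells/well co-treated with 5-fluorouridine and compound, 16 hr in 5% CO2 at 37 °C; ONE-Glo luminescence read after 30 min.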
Potency is read from the fitted curve at half-maximal effect.

| SMILES | Potency |
| --- | --- |
| CC(Oc1ccc(Cl)cc1)C(=O)Nc1sccc1C(N)=O (configuration not stated) | inconclusive: 20.6 µM [inhibitor, single point] |
| CCOc1ccc(S(=O)(=O)NCCCl)cc1 | inactive |
| CC(Nc1nc(N2CCNCC2)nc2ccccc12)c1ccccc1 (configuration not stated) | inactive |
| COc1ccc(C(C)=O)cc1COC(=O)c1cc(C)nc2ccccc12 | inconclusive: 16.4 µM [inhibitor, single point] |
| COc1ccccc1-c1nc(C#N)c(N2CCc3ccccc3C2)o1 | inconclusive: 29.1 µM [inhibitor, single point] |
| Oc1ccc(-c2n[nH]c(C(F)(F)F)c2-c2ccccc2)c(O)c1 | inconclusive: 1.83 µM [inhibitor, partial curve] |
| N#C/C(=N\Nc1cccc(Cl)c1)C(=O)c1ccccc1 | inconclusive: 23.1 µM [inhibitor, partial curve, poor fit] |
| O=C(Nc1cc(Br)ccc1O)c1cc(-c2ccc3c(c2)OCO3)on1 | inconclusive: 14.6 µM [activator, partial curve] |
| Cc1ccc(NC(=O)C2CCN(c3nc(C)cc(C)n3)CC2)cc1 | inactive |
| Cc1[nH]c(SCC(=O)Nc2cc(S(C)(=O)=O)ccc2Cl)nc1Cc1ccccc1 | inconclusive: 16.4 µM [inhibitor, single point] |
| Cc1onc(-c2c(F)cccc2Cl)c1C(=O)Nc1sc2c(c1C(N)=O)CCC2 | inconclusive: 18.4 µM [inhibitor, single point] |
| O=C(Nc1cccc(S(=O)(=O)C(F)F)c1)c1ccc(S(=O)(=O)N2CCOCC2)cc1 | inconclusive: 29.1 µM [inhibitor, single point] |
| C[C@]12CCC(=O)C=C1[C@H](O)C[C@@H]1[C@@H]2[C@@H](O)C[C@@]2(C)[C@H]1CC[C@]2(O)C(=O)CO | inconclusive: 11.6 µM [activator, partial curve, poor fit] |
| COc1ccc(C(=O)C2CCCN(Cc3ccc(C#CCCO)cc3)C2)c(OC)c1 (configuration not stated) | inconclusive: 23.1 µM [inhibitor, single point] |
| O=C(N/N=C/c1ccc([N+](=O)[O-])cc1)c1[nH]ncc1Br | inconclusive: 2.91 µM [activator, full curve] |
| CCN(CC)C(=O)C1CCCc2c1[nH]c1ccc(Cl)cc21 (configuration not stated) | inconclusive: 20.6 µM [activator, partial curve, poor fit] |
| CCN(CC)S(=O)(=O)c1ccc(C(=O)N2CCN(c3ncccn3)CC2)cc1 | inconclusive: 13 µM [inhibitor, partial curve, poor fit] |
| COc1ccccc1NC(=O)C1CCN(c2ncnc3c2nc2n3CCCCC2)CC1 | active: 9.2 µM |
| N/C(=N\OC(=O)CSc1ccccc1)c1ccncc1 | inconclusive: 18.3 µM [activator, partial curve] |
| Cc1ccnc(NC(=O)c2oc3ccccc3c2C)c1 | inconclusive: 1.46 µM [activator, full curve, poor fit] |
| CCOC(=O)N/N=C/c1cn(CCCOc2ccccc2)c2ccccc12 | inconclusive: 29.1 µM [inhibitor, single point] |
| Cc1cccc(C)c1NC(=O)CN(C)CC(=O)Nc1sc2c(c1C(N)=O)CCC2 | active: 7.3 µM |
| CC1=NN(C(=O)c2ccc(C)cc2)C(O)(C(F)(F)OC(F)(F)F)C1 (configuration not stated) | inactive |

Entries from the list above containing an NH in an aromatic ring, in the order listed:

| SMILES | Potency |
| --- | --- |
| Oc1ccc(-c2n[nH]c(C(F)(F)F)c2-c2ccccc2)c(O)c1 | inconclusive: 1.83 µM [inhibitor, partial curve] |
| Cc1[nH]c(SCC(=O)Nc2cc(S(C)(=O)=O)ccc2Cl)nc1Cc1ccccc1 | inconclusive: 16.4 µM [inhibitor, single point] |
| O=C(N/N=C/c1ccc([N+](=O)[O-])cc1)c1[nH]ncc1Br | inconclusive: 2.91 µM [activator, full curve] |
| CCN(CC)C(=O)C1CCCc2c1[nH]c1ccc(Cl)cc21 (configuration not stated) | inconclusive: 20.6 µM [activator, partial curve, poor fit] |

Continuation:

| SMILES | Potency |
| --- | --- |
| COc1ccc(OCC(=O)N2c3ccccc3CC2C)c([N+](=O)[O-])c1 (configuration not stated) | inconclusive: 25.9 µM [activator, partial curve, poor fit] |
| CCOC(=O)CSc1ncnc2c1c(-c1ccccc1)cn2-c1ccc(OC)cc1 | inactive |
| Cc1ccc(NC(=O)Cc2noc3ccccc23)nc1 | inconclusive: 14.6 µM [activator, single point] |
| CCOc1ccc(-c2c(=O)n(O)c3ccccc3[n+]2[O-])cc1 | inconclusive: 20.6 µM [activator, single point] |
| CCOC(=O)c1[nH]cnc1C(=O)Nc1ccccc1OC | inactive |
| COc1ccccc1N(C)S(=O)(=O)c1ccc(C(=O)N2CCC2)cc1 | inactive |
| CC(=O)NC(CSC(CC(=O)c1ccco1)c1ccc(C)cc1)C(=O)O (configuration not stated) | inconclusive: 20.6 µM [activator, single point] |
| CCSc1nnc(N2C(=O)CC(c3ccsc3)C3=C2CC(C)(C)CC3=O)s1 (configuration not stated) | inconclusive: 20.6 µM [inhibitor, single point] |
| Cc1cc(=O)oc2c3c(cc(OCC(=O)NCc4cccnc4)c12)OC(C)(C)CC3 | inactive |
| CNC(=S)N1CCN(c2cccc(OC)c2)CC1 | inactive |
| COc1ccc(CC2(CO)CCN(Cc3nc(C(C)C)cs3)CC2)cc1 | inconclusive: 7.3 µM [inhibitor, partial curve] |
| Cc1cccc(NC(=O)C2CCCN2C(=O)NC2CCCCC2)c1 (configuration not stated) | inconclusive: 14.6 µM [activator, partial curve, poor fit] |
| COCC1CCN(Cc2cn[nH]c2-c2cc3ccccc3o2)C1 (configuration not stated) | inactive |
| Cc1ccc(S(=O)(=O)N2CCN(C(=O)c3ccc4ccccc4n3)CC2)c(C)c1 | inconclusive: 1.64 µM [activator, full curve] |
| CC1(C)C[C@@H]2C[C@@](C)(CN2C(=O)c2cc(COc3cccc(C(F)(F)F)c3)on2)C1 | inactive |
| COc1ccc(/C=N/NC(=S)Nc2cc(S(=O)(=O)N3CCOCC3)ccc2N2CCOCC2)cc1O | active: 7.31 µM |
| O=C(Nc1ccc(F)cc1Cl)c1ccc2c(=O)n3c(nc2c1)CCC3 | inconclusive: 18.3 µM [activator, partial curve] |
| CN1CCN(c2nnc(-c3cccs3)c3ccccc23)CC1 | inactive |
| Cc1ccc(OCCC(=O)Nc2ccc3c(c2)OCCCO3)cc1 | inconclusive: 18.3 µM [activator, partial curve, poor fit] |
| CC(=O)Nc1ccc(C(=O)COC(=O)C2CCCCC2)c(F)c1 | inconclusive: 29.1 µM [activator, partial curve, poor fit] |
| COc1cc(-c2noc(CCC(=O)Nc3cccnc3)n2)cc(OC)c1OC | inconclusive: 25.9 µM [inhibitor, single point] |
| CCSc1nnc2nc3[nH]c4c(C)cccc4c3nn12 | inconclusive: 18.3 µM [activator, partial curve] |
| Cc1ccc(S(=O)(=O)N2CCN(C(=O)COC(=O)c3cc([N+](=O)[O-])ccc3NCCO)CC2)c(C)c1 | inconclusive: 4.11 µM [inhibitor, partial curve, poor fit] |

| SMILES | Potency |
| --- | --- |
| O=C(c1ccc2c(c1)OCO2)N(c1ccccc1)C1C=CS(=O)(=O)C1 (configuration not stated) | inactive |
| CCC(=O)N/C(=N/c1nc(C)cc(C)n1)Nc1ccc(C)cc1 | inconclusive: 23.1 µM [inhibitor, partial curve] |
| CC1CCN(S(=O)(=O)c2ccc3ncn(CC(=O)N(C)C4CCCCC4)c(=O)c3c2)CC1 | inconclusive: 29.1 µM [inhibitor, partial curve, poor fit] |
| COc1cccc(/C=C/C(=O)NCCc2ccc(OC)c(OC)c2)c1 | inactive |
| CN(C(=O)C(C)(C)C)c1ccc(OCC(=O)N2CCc3ccccc3C2)cc1 | inconclusive: 3.66 µM [inhibitor, partial curve, poor fit] |
| COc1ccc(CC(=O)Nc2nnc(C(C)(C)C)s2)cc1OC | inconclusive: 23.1 µM [inhibitor, partial curve, poor fit] |
| Cc1ccc(C(=O)NC(=S)N2CCN(C)CC2)cc1 | inconclusive: 25.9 µM [activator, partial curve, poor fit] |
| Cc1cc(C)c2oc(=O)cc(CN3CCOCC3)c2c1 | inconclusive: 3.26 µM [activator, partial curve, poor fit] |
| CCOc1ccc(NC(=S)NNC(=S)Nc2cccc(C(F)(F)F)c2)cc1 | inconclusive: 11.6 µM [activator, partial curve] |
| NS(=O)(=O)c1ccc(NC2=CC(=O)C(=O)c3ccccc32)cc1 | active: 10.3 µM |
| O=C(CSc1nnc(COc2ccc(Cl)cc2Cl)o1)Nc1ccccn1 | inconclusive: 20.6 µM [activator, partial curve, poor fit] |
| O=[N+]([O-])c1ccc(Cl)c(NC(=S)N2CCCC2)c1 | inconclusive: 20.6 µM [activator, partial curve] |
| Cc1cc(C)n2nc(SC(C)C(=O)N3CCOCC3)nc2n1 (configuration not stated) | inactive |
| COc1cccc(N2CCN(C(=O)CCCCCNc3nc(=S)[nH]c4ccccc34)CC2)c1 | active: 18.3 µM |
| CC(Oc1ccc(Cl)cc1)C(=O)Nc1ccc(S(=O)(=O)Nc2nccs2)cc1 (configuration not stated) | inactive |
| COc1ccccc1-c1cnn2c(NC3CCCC3)cc(C)nc12 | inconclusive: 9.2 µM [activator, partial curve] |
| Cc1cc(C)cc(NC(=O)CSc2nnc(CN3CCOCC3)n2C)c1 | inconclusive: 23.1 µM [activator, single point] |
| CS(=O)(=O)Nc1ccc(C(=O)Nc2ccccc2Sc2ccccc2)cc1 | inconclusive: 3.66 µM [inhibitor, partial curve, poor fit] |
| CCOc1ccccc1NC(=O)COC(=O)c1ccccc1SCC(=O)N1CCCC1 | inconclusive: 4.11 µM [inhibitor, single point] |
| O=C(NC(=S)Nc1ccccc1Br)C1CCCCC1 | inconclusive: 20.6 µM [activator, single point] |
| O=C(CCNC(=O)c1ccccc1)Nc1nc2ccccc2s1 | inconclusive: 20.6 µM [activator, partial curve, poor fit] |
